Measured values: publication PMC9361535
Results are given in words; binding and its absence hold for the method and conditions named. Binding seen in cells or lysates may run through a third protein. A yes stands for co-enrichment or nearness to the bait. Other partners may have been found.

The chains behind the UniProt entries cited, without tags or fusion partners. Residues count along the entry.
UniProt P54727: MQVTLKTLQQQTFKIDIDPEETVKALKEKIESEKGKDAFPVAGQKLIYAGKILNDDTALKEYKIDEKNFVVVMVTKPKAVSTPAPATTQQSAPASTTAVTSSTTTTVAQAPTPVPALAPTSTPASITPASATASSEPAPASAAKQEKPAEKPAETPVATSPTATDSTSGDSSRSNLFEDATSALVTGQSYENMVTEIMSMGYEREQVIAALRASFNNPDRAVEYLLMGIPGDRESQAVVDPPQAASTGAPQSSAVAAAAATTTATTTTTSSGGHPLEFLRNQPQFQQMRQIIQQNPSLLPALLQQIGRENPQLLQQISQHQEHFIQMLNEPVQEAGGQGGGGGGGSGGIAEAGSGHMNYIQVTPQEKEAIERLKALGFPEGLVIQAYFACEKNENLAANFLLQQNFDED
UniProt P25685: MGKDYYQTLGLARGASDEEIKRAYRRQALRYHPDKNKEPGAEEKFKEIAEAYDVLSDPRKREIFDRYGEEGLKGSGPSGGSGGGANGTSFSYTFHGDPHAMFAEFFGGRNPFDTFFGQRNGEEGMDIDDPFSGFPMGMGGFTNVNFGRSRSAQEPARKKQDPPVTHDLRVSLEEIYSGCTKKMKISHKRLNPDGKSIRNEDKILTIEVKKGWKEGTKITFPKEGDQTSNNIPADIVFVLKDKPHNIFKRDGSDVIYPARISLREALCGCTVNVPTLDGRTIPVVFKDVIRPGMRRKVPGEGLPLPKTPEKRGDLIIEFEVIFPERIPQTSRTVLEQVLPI
UniProt O75475: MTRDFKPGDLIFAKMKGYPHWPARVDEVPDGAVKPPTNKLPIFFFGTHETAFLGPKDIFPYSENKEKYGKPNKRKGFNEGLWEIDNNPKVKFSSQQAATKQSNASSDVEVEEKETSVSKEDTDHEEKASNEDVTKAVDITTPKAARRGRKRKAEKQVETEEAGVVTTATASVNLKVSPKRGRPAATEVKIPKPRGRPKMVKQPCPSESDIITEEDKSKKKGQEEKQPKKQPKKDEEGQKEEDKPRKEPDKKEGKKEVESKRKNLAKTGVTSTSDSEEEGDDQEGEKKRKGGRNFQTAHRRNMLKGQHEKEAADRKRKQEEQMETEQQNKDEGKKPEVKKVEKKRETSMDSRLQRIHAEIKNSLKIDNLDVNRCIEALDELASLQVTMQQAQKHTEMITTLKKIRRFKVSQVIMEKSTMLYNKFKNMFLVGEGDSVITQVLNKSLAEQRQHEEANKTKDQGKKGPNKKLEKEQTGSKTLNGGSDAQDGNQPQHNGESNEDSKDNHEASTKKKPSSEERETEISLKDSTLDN
UniProt P54725: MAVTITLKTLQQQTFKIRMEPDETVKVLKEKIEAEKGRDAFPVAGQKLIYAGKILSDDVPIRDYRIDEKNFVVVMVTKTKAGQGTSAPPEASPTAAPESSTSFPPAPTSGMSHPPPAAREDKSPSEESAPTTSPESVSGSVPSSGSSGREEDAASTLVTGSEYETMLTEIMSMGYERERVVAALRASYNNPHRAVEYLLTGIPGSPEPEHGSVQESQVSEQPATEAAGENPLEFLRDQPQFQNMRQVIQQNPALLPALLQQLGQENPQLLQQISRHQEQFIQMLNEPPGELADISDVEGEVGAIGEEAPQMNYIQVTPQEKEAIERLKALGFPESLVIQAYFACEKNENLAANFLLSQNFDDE
UniProt P01100: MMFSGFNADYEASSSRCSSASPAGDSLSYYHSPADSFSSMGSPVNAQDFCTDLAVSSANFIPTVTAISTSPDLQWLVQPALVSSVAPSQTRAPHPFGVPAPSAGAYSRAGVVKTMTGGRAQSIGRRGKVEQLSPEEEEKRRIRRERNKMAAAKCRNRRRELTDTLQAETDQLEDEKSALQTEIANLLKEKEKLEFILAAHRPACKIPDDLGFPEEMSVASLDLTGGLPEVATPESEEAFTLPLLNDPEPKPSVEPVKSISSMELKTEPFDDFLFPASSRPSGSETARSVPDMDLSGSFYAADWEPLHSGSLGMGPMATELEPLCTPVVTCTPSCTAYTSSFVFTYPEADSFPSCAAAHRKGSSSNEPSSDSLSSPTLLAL
UniProt Q8TEM1, residues 27-1887: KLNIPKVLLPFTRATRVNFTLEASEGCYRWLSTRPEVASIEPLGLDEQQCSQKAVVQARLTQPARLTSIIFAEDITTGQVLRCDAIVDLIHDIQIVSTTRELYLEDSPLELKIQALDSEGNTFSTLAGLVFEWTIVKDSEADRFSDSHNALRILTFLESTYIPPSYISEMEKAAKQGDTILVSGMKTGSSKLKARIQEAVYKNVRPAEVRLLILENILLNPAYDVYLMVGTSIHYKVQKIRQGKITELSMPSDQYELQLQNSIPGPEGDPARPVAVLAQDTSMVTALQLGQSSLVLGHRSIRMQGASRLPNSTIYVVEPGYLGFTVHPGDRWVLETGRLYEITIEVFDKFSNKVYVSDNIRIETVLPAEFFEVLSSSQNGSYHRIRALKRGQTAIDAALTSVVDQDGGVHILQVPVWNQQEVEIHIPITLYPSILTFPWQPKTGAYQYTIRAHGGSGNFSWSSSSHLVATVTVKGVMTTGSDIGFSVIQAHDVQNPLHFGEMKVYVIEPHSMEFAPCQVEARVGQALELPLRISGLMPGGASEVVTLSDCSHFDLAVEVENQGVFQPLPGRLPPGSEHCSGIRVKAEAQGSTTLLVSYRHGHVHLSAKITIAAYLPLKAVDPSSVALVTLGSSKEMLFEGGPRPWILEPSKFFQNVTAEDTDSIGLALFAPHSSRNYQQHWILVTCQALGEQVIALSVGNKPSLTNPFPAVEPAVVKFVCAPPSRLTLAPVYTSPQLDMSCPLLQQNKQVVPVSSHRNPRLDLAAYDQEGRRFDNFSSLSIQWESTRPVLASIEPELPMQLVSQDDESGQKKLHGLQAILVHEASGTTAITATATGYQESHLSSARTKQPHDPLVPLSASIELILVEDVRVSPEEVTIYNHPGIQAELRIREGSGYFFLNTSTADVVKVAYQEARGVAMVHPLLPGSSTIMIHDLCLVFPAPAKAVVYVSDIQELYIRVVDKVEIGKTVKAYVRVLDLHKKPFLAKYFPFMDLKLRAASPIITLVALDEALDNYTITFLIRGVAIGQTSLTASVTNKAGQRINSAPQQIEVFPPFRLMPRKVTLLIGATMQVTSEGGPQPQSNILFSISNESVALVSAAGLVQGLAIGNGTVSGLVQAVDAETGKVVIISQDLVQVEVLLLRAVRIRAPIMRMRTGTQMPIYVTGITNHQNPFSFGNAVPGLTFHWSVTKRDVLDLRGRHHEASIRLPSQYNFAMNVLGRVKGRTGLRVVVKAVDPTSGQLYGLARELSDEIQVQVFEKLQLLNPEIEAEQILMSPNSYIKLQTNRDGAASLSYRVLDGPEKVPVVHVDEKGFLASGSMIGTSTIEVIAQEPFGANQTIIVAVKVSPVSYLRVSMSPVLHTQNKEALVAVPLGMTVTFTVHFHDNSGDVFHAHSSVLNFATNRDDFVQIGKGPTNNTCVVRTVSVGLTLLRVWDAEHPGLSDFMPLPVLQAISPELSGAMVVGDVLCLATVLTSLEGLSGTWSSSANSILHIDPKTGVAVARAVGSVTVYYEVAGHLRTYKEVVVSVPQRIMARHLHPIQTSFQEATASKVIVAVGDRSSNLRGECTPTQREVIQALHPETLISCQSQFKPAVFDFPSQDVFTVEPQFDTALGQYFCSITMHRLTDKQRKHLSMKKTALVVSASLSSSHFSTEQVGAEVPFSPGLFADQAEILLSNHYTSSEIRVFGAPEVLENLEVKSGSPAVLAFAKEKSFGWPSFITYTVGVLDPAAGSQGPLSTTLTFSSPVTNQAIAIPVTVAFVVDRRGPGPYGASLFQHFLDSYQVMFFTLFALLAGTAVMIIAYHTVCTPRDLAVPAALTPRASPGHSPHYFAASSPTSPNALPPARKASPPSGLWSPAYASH
UniProt Q15291: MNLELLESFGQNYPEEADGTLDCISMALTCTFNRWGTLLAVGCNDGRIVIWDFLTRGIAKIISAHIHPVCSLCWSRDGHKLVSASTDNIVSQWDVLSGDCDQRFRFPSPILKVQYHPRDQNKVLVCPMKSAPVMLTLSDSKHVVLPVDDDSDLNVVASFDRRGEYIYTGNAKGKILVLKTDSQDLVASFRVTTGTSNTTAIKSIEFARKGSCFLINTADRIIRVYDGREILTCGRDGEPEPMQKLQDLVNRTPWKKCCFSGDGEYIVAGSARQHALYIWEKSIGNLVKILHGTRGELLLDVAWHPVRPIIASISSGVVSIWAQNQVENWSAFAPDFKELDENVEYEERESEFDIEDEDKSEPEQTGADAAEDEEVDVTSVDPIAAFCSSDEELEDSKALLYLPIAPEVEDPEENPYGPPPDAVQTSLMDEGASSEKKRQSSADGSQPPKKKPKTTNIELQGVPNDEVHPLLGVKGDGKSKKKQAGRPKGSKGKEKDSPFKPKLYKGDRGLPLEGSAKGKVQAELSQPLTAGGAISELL
UniProt O95816: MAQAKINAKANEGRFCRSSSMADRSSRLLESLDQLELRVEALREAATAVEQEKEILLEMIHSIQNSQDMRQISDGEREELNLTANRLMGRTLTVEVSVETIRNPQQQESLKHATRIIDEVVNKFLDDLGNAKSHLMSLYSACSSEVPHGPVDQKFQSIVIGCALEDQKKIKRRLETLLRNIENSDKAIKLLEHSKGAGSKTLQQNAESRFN
UniProt Q9UBL3: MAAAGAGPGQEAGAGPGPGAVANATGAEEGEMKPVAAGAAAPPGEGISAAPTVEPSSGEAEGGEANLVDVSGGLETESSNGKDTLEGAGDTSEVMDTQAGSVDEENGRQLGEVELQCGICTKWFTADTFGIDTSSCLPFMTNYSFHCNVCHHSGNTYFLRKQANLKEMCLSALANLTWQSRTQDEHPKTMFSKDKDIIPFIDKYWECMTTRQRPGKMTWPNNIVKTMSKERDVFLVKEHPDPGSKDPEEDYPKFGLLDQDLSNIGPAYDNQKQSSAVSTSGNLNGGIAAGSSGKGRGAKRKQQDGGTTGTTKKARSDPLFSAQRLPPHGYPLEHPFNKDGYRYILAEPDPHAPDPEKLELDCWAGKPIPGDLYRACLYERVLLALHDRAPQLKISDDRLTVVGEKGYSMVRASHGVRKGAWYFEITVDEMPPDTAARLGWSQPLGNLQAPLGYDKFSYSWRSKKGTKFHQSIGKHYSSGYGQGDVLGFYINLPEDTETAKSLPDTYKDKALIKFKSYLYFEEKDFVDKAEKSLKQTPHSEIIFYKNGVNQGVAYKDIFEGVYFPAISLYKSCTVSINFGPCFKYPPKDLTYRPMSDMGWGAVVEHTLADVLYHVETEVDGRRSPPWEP
UniProt P11142: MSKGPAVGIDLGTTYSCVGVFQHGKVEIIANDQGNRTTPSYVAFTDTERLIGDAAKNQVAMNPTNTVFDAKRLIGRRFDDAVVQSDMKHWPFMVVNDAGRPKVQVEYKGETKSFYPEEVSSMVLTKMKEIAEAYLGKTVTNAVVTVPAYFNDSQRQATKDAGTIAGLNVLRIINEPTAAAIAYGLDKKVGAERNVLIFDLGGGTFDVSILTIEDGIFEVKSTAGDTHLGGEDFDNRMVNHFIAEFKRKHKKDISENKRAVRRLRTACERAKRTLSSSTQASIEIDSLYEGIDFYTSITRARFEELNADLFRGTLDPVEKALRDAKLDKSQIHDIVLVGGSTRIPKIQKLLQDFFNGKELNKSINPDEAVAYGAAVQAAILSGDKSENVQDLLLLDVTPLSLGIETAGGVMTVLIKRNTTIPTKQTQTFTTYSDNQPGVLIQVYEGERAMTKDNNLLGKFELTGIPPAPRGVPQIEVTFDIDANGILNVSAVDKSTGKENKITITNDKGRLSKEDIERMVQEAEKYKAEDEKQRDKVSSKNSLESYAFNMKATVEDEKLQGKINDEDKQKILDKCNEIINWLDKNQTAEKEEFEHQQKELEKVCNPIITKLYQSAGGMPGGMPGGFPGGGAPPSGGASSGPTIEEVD

Experiments:
[1] = target: menin Q141R-GFP (human) (UniProt O00255); test: affinity purification with mass spectrometry; GFP-Trap agarose beads against control agarose beads; 3 mg cytoplasmic extract of HeLa cells induced with doxycycline for 24 h; binding buffer 20 mM Hepes-KOH pH 7.9, 300 mM NaCl, 20% glycerol, 0.1% NP-40; 4 °C, 1 h; triplicates; label-free LFQ and iBAQ, FDR 0.01, s0 2
[2] = target: menin R52G-GFP (human) (UniProt O00255); test: as above
[3] = target: menin L264P-GFP (human) (UniProt O00255); test: as above
[4] = target: WT menin-GFP (human) (UniProt O00255); test: as above
[5] = target: menin E408Q-GFP (human) (UniProt O00255); test: as above
[6] = target: menin E366D-GFP (human) (UniProt O00255); test: as above
[7] = target: menin L168P-GFP (human) (UniProt O00255); test: as above
[8] = target: menin E255K-GFP (human) (UniProt O00255); test: as above
[9] = target: menin E359K-GFP (human) (UniProt O00255); test: as above
[10] = target: WT menin-GFP (human) (UniProt O00255); test: affinity purification with mass spectrometry; GFP-Trap agarose beads against control agarose beads; 1 mg nuclear extract of HeLa cells induced with doxycycline for 24 h; binding buffer 20 mM Hepes-KOH pH 7.9, 300 mM NaCl, 20% glycerol, 0.1% NP-40; 4 °C, 1 h; triplicates; label-free LFQ and iBAQ, FDR 0.01, s0 2
[11] = target: menin E408Q-GFP (human) (UniProt O00255); test: as above
[12] = target: menin E366D-GFP (human) (UniProt O00255); test: as above

Measured: binding

RAD23B (from UniProt P54727 1-409)
not listed: [10] | [11] | [12]
binds: all other assays above

DNAJB1 (from UniProt P25685 1-340)
not listed: [10] | [11] | [12]
binds: all other assays above

PSIP1 (from UniProt O75475 1-530)
binds: [10] | [11] | [12]

VCP (from UniProt P55072 1-806)
not listed: [10] | [11] | [12]
binds: all other assays above

RAD23A (from UniProt P54725 1-363)
not listed: [10] | [11] | [12]
binds: all other assays above

FOS (from UniProt P01100 1-380)
binds: [10] | [11] | [12]

NUP210 (from UniProt Q8TEM1 27-1887)
binds: [6]

RBBP5 (from UniProt Q15291 1-538)
binds: [10] | [11] | [12]

BAG2 (from UniProt O95816 1-211)
not listed: [10] | [11] | [12]
binds: all other assays above

ASH2L (from UniProt Q9UBL3 1-628)
binds: [10] | [11] | [12]

HSPA8 (from UniProt P11142 1-646)
not listed: [10] | [11] | [12]
binds: all other assays above

B1: OGT (enzyme, UniProt O15294 1-1046)
chain: MASSVGNVADSTEPTKRMLSFQGLAELAHREYQAGDFEAAERHCMQLWRQEPDNTGVLLLLSSIHFQCRRLDRSAHFSTLAIKQNPLLAEAYSNLGNVYKERGQLQEAIEHYRHALRLKPDFIDGYINLAAALVAAGDMEGAVQAYVSALQYNPDLYCVRSDLGNLLKALGRLEEAKACYLKAIETQPNFAVAWSNLGCVFNAQGEIWLAIHHFEKAVTLDPNFLDAYINLGNVLKEARIFDRAVAAYLRALSLSPNHAVVHGNLACVYYEQGLIDLAIDTYRRAIELQPHFPDAYCNLANALKEKGSVAEAEDCYNTALRLCPTHADSLNNLANIKREQGNIEEAVRLYRKALEVFPEFAAAHSNLASVLQQQGKLQEALMHYKEAIRISPTFADAYSNMGNTLKEMQDVQGALQCYTRAIQINPAFADAHSNLASIHKDSGNIPEAIASYRTALKLKPDFPDAYCNLAHCLQIVCDWTDYDERMKKLVSIVADQLEKNRLPSVHPHHSMLYPLSHGFRKAIAERHGNLCLDKINVLHKPPYEHPKDLKLSDGRLRVGYVSSDFGNHPTSHLMQSIPGMHNPDKFEVFCYALSPDDGTNFRVKVMAEANHFIDLSQIPCNGKAADRIHQDGIHILVNMNGYTKGARNELFALRPAPIQAMWLGYPGTSGALFMDYIITDQETSPAEVAEQYSEKLAYMPHTFFIGDHANMFPHLKKKAVIDFKSNGHIYDNRIVLNGIDLKAFLDSLPDVKIVKMKCPDGGDNADSSNTALNMPVIPMNTIAEAVIEMINRGQIQITINGFSISNGLATTQINNKAATGEEVPRTIIVTTRSQYGLPEDAIVYCNFNQLYKIDPSTLQMWANILKRVPNSVLWLLRFPAVGEPNIQQYAQNMGLPQNRIIFSPVAPKEEHVRRGQLADVCLDTPLCNGHTTGMDVLWAGTPMVTMPGETLASRVAASQLTCLGCLELIAKNRQEYEDIAVKLGTDLEYLKKVRGKVWKQRISSPLFNTKQYTMELERLYLQMWEHYAAGNKPDHMIKPVEVTESA
binds: [10] | [11]
